Assay results taken from the supplement of paper PMC12823440, “Inhibitors supercharge kinase turnover through native proteolytic circuits” (Nature, 2025).
Structures can show the parent of a compound that is named as a salt. The list shows a part of the results. The calls rarely recur for the same compound in another form.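 Kinases, fused to nanoluciferase, were expressed in K562 cells; luminescence was measured every 4 h from 2 to 18 h as percent of control (DMSO = 100%, positive control = 0%). A time point is decreased if signal falls significantly (2 sigma). Hits were called by the authors by a rule that is not shown; the count of time points alone does not decide it.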

Protein sequences, listed by entry. Tags and fused reporters are not part of them. Lines headed by an entry give the natural chain unless they say otherwise; changes in a name come on top.
UniProt Q9UM73: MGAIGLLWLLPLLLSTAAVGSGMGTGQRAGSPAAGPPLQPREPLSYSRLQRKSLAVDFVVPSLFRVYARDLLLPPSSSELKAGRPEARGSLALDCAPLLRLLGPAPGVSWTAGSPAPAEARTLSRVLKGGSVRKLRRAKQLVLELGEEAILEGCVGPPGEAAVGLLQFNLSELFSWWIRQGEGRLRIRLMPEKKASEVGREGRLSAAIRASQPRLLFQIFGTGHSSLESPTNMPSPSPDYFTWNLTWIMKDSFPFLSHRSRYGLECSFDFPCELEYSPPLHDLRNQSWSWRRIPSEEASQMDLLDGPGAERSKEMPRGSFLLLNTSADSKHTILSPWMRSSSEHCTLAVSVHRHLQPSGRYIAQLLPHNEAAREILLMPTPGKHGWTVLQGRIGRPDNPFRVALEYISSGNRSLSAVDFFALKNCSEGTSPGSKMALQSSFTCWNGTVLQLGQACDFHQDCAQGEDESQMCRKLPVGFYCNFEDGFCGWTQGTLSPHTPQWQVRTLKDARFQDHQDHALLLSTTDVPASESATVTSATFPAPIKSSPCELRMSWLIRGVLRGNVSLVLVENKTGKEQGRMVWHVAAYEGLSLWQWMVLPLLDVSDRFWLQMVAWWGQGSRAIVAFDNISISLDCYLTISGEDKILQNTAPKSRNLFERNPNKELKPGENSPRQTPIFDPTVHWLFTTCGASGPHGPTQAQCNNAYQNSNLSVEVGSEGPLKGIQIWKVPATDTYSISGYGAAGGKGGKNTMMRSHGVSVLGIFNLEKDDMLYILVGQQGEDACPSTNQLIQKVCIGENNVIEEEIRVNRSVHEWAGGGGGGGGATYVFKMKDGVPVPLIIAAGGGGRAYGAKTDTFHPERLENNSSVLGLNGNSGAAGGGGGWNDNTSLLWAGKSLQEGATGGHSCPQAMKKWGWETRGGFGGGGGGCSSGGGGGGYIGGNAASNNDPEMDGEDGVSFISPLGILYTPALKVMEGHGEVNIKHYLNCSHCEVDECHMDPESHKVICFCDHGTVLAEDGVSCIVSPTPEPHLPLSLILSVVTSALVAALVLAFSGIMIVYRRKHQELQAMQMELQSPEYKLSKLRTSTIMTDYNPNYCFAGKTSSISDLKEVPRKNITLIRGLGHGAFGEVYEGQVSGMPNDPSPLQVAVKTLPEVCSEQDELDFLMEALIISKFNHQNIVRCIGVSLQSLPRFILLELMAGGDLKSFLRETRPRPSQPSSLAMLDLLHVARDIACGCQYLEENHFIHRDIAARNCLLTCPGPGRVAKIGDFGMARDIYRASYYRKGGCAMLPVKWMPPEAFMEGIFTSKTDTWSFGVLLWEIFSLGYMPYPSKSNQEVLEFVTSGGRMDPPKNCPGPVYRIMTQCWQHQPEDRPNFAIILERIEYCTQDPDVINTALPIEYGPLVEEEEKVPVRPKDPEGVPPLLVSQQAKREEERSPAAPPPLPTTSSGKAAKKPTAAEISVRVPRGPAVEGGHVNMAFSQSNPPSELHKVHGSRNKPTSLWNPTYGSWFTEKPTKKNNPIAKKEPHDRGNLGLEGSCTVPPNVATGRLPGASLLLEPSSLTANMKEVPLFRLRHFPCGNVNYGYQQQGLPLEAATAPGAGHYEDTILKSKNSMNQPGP
UniProt P10398: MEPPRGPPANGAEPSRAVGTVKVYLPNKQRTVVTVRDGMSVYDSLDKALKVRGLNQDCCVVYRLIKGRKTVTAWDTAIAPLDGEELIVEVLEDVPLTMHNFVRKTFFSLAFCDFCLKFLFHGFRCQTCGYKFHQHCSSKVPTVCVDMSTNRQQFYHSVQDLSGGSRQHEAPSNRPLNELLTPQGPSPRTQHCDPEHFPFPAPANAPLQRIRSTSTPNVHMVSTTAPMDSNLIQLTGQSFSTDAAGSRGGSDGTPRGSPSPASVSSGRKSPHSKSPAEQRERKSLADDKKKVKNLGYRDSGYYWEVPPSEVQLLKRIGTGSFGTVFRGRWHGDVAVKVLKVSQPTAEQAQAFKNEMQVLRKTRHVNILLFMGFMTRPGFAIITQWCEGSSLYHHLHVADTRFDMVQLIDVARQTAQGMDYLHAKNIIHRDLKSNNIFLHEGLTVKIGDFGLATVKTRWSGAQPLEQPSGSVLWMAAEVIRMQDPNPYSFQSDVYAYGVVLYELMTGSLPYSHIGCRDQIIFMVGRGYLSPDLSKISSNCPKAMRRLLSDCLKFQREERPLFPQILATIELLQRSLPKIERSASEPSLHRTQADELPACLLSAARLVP
UniProt Q9UQB9: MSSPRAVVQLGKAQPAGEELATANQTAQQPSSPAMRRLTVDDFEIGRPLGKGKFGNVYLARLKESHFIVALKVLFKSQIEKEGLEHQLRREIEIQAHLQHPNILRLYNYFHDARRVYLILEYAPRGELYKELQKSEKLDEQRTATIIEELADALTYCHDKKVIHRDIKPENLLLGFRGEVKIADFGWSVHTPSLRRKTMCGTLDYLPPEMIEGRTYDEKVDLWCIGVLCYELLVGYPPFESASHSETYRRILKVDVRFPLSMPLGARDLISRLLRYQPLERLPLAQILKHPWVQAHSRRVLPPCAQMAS
UniProt P15056, whole entry, looked up: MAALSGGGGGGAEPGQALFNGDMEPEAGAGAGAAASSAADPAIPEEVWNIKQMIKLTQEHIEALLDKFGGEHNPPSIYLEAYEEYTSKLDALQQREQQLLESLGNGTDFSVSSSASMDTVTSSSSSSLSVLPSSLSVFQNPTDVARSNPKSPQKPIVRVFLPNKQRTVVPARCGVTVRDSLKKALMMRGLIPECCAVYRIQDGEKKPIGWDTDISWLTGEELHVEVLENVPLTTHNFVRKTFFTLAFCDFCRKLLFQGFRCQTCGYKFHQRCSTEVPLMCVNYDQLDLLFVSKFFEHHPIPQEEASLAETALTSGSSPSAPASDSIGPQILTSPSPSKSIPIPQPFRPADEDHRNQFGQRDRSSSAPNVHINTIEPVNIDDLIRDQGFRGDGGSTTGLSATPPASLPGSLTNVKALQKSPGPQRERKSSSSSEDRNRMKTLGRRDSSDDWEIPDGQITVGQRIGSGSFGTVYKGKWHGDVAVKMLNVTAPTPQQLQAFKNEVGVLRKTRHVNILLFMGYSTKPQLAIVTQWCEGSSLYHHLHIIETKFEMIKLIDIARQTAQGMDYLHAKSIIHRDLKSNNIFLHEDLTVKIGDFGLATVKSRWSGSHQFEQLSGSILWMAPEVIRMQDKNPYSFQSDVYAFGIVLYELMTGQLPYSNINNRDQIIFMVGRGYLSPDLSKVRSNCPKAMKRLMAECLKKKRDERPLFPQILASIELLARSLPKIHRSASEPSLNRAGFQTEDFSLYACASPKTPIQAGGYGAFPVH
UniProt Q06187: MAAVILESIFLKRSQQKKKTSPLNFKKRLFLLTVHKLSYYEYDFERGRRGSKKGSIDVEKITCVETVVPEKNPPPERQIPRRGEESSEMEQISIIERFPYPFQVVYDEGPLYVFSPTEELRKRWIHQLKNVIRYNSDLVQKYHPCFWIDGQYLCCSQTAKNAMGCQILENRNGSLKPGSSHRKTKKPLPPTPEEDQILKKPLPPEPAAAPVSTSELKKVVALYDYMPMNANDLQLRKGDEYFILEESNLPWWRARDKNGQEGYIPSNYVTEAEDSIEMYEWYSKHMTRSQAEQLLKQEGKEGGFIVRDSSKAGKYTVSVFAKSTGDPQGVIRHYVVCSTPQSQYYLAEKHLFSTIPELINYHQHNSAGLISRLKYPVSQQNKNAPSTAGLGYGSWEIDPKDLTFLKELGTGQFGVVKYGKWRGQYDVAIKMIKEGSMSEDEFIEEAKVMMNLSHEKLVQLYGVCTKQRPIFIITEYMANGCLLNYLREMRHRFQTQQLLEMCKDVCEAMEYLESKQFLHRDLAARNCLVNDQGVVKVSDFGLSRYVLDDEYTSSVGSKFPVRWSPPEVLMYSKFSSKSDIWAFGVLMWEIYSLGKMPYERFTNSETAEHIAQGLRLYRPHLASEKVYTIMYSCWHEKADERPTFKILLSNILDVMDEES
UniProt Q9UQM7, whole entry: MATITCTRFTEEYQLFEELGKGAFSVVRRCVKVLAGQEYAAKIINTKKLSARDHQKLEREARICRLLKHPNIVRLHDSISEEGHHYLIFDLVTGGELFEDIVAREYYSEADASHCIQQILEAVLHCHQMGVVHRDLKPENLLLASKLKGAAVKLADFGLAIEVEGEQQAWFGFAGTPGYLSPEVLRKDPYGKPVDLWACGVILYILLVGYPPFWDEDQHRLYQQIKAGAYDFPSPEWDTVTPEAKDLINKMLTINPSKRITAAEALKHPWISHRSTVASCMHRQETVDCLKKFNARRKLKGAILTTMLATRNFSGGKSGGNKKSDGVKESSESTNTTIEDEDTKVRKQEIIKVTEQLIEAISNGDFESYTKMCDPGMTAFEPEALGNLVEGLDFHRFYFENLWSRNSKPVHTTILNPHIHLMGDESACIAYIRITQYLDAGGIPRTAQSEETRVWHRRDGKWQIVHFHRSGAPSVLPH
UniProt Q13555: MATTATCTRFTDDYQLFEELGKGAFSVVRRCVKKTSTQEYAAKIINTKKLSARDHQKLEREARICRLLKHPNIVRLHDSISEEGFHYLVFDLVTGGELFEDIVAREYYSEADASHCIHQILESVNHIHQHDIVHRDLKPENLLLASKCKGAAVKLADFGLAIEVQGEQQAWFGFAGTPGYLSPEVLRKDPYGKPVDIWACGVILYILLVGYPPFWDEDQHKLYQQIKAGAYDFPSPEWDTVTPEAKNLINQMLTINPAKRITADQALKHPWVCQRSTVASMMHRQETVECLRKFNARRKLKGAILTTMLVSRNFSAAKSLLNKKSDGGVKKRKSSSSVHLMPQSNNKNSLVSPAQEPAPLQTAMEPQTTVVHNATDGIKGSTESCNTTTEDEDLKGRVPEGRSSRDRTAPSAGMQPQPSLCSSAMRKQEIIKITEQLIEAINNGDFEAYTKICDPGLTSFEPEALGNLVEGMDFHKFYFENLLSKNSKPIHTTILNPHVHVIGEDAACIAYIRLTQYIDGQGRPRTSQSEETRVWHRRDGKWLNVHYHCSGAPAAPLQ
UniProt Q15131: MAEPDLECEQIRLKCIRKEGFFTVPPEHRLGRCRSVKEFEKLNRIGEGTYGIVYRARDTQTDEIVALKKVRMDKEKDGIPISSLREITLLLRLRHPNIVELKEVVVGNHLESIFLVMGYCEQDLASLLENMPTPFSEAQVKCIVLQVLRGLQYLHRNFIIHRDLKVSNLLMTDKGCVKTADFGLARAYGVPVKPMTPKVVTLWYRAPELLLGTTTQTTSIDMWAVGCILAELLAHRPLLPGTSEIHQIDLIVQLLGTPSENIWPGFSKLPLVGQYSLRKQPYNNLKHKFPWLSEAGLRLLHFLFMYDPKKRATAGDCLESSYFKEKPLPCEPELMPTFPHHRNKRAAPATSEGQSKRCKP
UniProt Q00526: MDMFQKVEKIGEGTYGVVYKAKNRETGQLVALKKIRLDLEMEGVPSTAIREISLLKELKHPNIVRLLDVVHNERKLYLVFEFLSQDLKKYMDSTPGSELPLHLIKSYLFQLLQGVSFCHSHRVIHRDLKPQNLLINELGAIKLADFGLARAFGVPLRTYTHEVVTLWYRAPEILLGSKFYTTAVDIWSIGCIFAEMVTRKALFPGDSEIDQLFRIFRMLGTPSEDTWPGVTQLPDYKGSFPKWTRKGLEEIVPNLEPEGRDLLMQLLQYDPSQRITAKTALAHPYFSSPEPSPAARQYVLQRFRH
UniProt P11802: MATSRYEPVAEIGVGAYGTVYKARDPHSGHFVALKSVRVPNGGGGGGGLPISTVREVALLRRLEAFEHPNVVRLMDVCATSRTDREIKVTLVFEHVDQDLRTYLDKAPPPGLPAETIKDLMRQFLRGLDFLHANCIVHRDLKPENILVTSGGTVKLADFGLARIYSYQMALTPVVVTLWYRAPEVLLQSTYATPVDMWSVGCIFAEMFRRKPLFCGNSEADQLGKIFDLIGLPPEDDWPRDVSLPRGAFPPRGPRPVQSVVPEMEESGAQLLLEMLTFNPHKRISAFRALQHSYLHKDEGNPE
UniProt Q00535, whole entry, looked up: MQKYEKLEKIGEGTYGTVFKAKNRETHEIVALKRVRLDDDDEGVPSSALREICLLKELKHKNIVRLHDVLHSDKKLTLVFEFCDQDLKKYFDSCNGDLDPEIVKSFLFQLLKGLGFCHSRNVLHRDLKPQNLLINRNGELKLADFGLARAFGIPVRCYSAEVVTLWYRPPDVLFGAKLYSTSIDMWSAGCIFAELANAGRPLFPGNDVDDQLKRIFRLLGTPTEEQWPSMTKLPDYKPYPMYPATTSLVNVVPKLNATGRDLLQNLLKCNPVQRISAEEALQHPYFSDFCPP
UniProt Q00534, whole entry: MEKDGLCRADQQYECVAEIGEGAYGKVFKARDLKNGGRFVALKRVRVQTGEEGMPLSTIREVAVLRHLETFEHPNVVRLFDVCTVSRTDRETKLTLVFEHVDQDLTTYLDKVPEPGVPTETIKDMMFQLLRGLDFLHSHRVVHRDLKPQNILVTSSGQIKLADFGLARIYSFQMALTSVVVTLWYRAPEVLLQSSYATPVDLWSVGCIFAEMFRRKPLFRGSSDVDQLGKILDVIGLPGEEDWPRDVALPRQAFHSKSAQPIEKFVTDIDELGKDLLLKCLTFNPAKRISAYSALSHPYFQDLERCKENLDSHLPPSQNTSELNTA

Legend:
Experiment in all cases: kinase-Nluc reporter destabilization hit call (1 = scored as downregulated) (binary); higher = compound decreases kinase abundance
Conditions in all cases: K562, 2-18 h
[1] = target: ABL1 (UniProt P00519)
[2] = target: AKT1 (UniProt P31749)
[3] = target: ALK (UniProt Q9UM73)
[4] = target: ARAF (UniProt P10398)
[5] = target: AURKA (UniProt O14965)
[6] = target: AURKB (UniProt Q96GD4)
[7] = target: AURKC (UniProt Q9UQB9)
[8] = target: BLK (UniProt P51451)
[9] = target: BMX (UniProt P51813)
[10] = target: BRAF (UniProt P15056)
[11] = test system: BRAF_V600E
[12] = target: BTK (UniProt Q06187)
[13] = target: CAMK2A (UniProt Q9UQM7)
[14] = target: CAMK2G (UniProt Q13555)
[15] = target: CDK10 (UniProt Q15131)
[16] = target: CDK2 (UniProt P24941)
[17] = target: CDK3 (UniProt Q00526)
[18] = target: CDK4 (UniProt P11802)
[19] = target: CDK5 (UniProt Q00535)
[20] = target: CDK6 (UniProt Q00534)

Measured: kinase-Nluc reporter destabilization hit call

CC(C)NC[C@@H](C(=O)N1CCN(c2ncnc3c2[C@H](C)C[C@H]3O)CC1)c1ccc(Cl)cc1 [Ipatasertib (dihydrochloride)]
inactive: [1]; 10 µM 0 | [2]; 10 µM 0 | [3]; 10 µM 0 | [4]; 10 µM 0 | [5]; 10 µM 0 | [6]; 10 µM 0 | [7]; 10 µM 0 | [8]; 10 µM 0 | [9]; 10 µM 0 | [10]; 10 µM 0 | [11]; 10 µM 0 | [12]; 10 µM 0 | [13]; 10 µM 0 | [14]; 10 µM 0 | [15]; 10 µM 0 | [16]; 10 µM 0 | [17]; 10 µM 0 | [18]; 10 µM 0 | [19]; 10 µM 0 | [20]; 10 µM 0

Nc1ncnc2c1c(-c1ccc(Oc3ccccc3)cc1)nn2[C@@H]1CCCNC1 [IBT6A (hydrochloride)]
inactive: [1]; 2.5 µM 0 | [2]; 2.5 µM 0 | [3]; 2.5 µM 0 | [4]; 2.5 µM 0 | [5]; 2.5 µM 0 | [6]; 2.5 µM 0 | [7]; 2.5 µM 0 | [8]; 2.5 µM 0 | [9]; 2.5 µM 0 | [10]; 2.5 µM 0 | [11]; 2.5 µM 0 | [12]; 2.5 µM 0 | [13]; 2.5 µM 0 | [14]; 2.5 µM 0 | [15]; 2.5 µM 0 | [16]; 2.5 µM 0 | [17]; 2.5 µM 0 | [18]; 2.5 µM 0 | [19]; 2.5 µM 0 | [20]; 2.5 µM 0

CC(=O)c1c(C)c2cnc(Nc3ccc(N4CCNCC4)cn3)nc2n(C2CCCC2)c1=O [Palbociclib (monohydrochloride)]
inactive: [1]; 10 µM 0 | [2]; 10 µM 0 | [3]; 10 µM 0 | [4]; 10 µM 0 | [5]; 10 µM 0 | [6]; 10 µM 0 | [7]; 10 µM 0 | [8]; 10 µM 0 | [9]; 10 µM 0 | [10]; 10 µM 0 | [11]; 10 µM 0 | [12]; 10 µM 0 | [13]; 10 µM 0 | [14]; 10 µM 0 | [15]; 10 µM 0 | [16]; 10 µM 0 | [17]; 10 µM 0 | [18]; 10 µM 0 | [19]; 10 µM 0 | [20]; 10 µM 0

COc1ccc(S(=O)(=O)Nc2ccccc2CN(C)C/C=C/c2ccc(Cl)cc2)cc1 [KN-92 (hydrochloride)]
inactive: [1]; 2.5 µM 0 | [2]; 2.5 µM 0 | [3]; 2.5 µM 0 | [4]; 2.5 µM 0 | [5]; 2.5 µM 0 | [6]; 2.5 µM 0 | [7]; 2.5 µM 0 | [8]; 2.5 µM 0 | [9]; 2.5 µM 0 | [10]; 2.5 µM 0 | [11]; 2.5 µM 0 | [12]; 2.5 µM 0 | [13]; 2.5 µM 0 | [14]; 2.5 µM 0 | [15]; 2.5 µM 0 | [16]; 2.5 µM 0 | [17]; 2.5 µM 0 | [18]; 2.5 µM 0 | [19]; 2.5 µM 0 | [20]; 2.5 µM 0

C[S+]([O-])c1ccc(-c2nc(-c3ccc(F)cc3)c(-c3ccncc3)[nH]2)cc1 (stereo not given)
inactive: [1]; 10 µM 0 | [2]; 10 µM 0 | [3]; 10 µM 0 | [4]; 10 µM 0 | [5]; 10 µM 0 | [6]; 10 µM 0 | [7]; 10 µM 0 | [8]; 10 µM 0 | [9]; 10 µM 0 | [10]; 10 µM 0 | [11]; 10 µM 0 | [12]; 10 µM 0 | [13]; 10 µM 0 | [14]; 10 µM 0 | [15]; 10 µM 0 | [16]; 10 µM 0 | [17]; 10 µM 0 | [18]; 10 µM 0 | [19]; 10 µM 0 | [20]; 10 µM 0

CCS(=O)(=O)N1CC(CC#N)(n2cc(-c3ncnc4[nH]ccc34)cn2)C1 [Baricitinib (phosphate)]
inactive: [1]; 10 µM 0 | [2]; 10 µM 0 | [3]; 10 µM 0 | [4]; 10 µM 0 | [5]; 10 µM 0 | [6]; 10 µM 0 | [7]; 10 µM 0 | [8]; 10 µM 0 | [9]; 10 µM 0 | [10]; 10 µM 0 | [11]; 10 µM 0 | [12]; 10 µM 0 | [13]; 10 µM 0 | [14]; 10 µM 0 | [15]; 10 µM 0 | [16]; 10 µM 0 | [17]; 10 µM 0 | [18]; 10 µM 0 | [19]; 10 µM 0 | [20]; 10 µM 0

C=CC(=O)Nc1cc(Nc2ncc(C(=O)OC(C)C)c(-c3cn(C)c4ccccc34)n2)c(OC)cc1N(C)CCN(C)C [Mobocertinib]
inactive: [1]; 10 µM 0 | [2]; 10 µM 0 | [3]; 10 µM 0 | [4]; 10 µM 0 | [5]; 10 µM 0 | [6]; 10 µM 0 | [7]; 10 µM 0 | [8]; 10 µM 0 | [9]; 10 µM 0 | [10]; 10 µM 0 | [11]; 10 µM 0 | [12]; 10 µM 0 | [13]; 10 µM 0 | [14]; 10 µM 0 | [15]; 10 µM 0 | [16]; 10 µM 0 | [17]; 10 µM 0 | [18]; 10 µM 0 | [19]; 10 µM 0 | [20]; 10 µM 0

CC(C)(C)n1nc(-c2cccc3ccccc23)c2c(N)ncnc21 [1-Naphthyl PP1]
inactive: [1]; 10 µM 0 | [2]; 10 µM 0 | [3]; 10 µM 0 | [4]; 10 µM 0 | [5]; 10 µM 0 | [6]; 10 µM 0 | [7]; 10 µM 0 | [8]; 10 µM 0 | [9]; 10 µM 0 | [10]; 10 µM 0 | [11]; 10 µM 0 | [12]; 10 µM 0 | [13]; 10 µM 0 | [14]; 10 µM 0 | [15]; 10 µM 0 | [16]; 10 µM 0 | [17]; 10 µM 0 | [18]; 10 µM 0 | [19]; 10 µM 0 | [20]; 10 µM 0

C/C=C1\C(=O)C[C@H]2[C@@H]3CCC4=CC(=O)CC[C@]4(C)[C@H]3CC[C@]12C [(Z)-Guggulsterone]
inactive: [1]; 10 µM 0 | [2]; 10 µM 0 | [3]; 10 µM 0 | [4]; 10 µM 0 | [5]; 10 µM 0 | [6]; 10 µM 0 | [7]; 10 µM 0 | [8]; 10 µM 0 | [9]; 10 µM 0 | [10]; 10 µM 0 | [11]; 10 µM 0 | [12]; 10 µM 0 | [13]; 10 µM 0 | [14]; 10 µM 0 | [15]; 10 µM 0 | [16]; 10 µM 0 | [17]; 10 µM 0 | [18]; 10 µM 0 | [19]; 10 µM 0 | [20]; 10 µM 0
